Reference: US20210115113A1 (CITY OF HOPE, published 2021)
Results are given in words; binding and its absence hold for the method and conditions named. Some binding calls cover weakened binding; strength is not graded here.

Protein sequences, listed by entry. Tags and fused reporters are not part of them. Lines headed by an entry give the natural chain unless they say otherwise; changes in a name come on top.
UniProt P03200: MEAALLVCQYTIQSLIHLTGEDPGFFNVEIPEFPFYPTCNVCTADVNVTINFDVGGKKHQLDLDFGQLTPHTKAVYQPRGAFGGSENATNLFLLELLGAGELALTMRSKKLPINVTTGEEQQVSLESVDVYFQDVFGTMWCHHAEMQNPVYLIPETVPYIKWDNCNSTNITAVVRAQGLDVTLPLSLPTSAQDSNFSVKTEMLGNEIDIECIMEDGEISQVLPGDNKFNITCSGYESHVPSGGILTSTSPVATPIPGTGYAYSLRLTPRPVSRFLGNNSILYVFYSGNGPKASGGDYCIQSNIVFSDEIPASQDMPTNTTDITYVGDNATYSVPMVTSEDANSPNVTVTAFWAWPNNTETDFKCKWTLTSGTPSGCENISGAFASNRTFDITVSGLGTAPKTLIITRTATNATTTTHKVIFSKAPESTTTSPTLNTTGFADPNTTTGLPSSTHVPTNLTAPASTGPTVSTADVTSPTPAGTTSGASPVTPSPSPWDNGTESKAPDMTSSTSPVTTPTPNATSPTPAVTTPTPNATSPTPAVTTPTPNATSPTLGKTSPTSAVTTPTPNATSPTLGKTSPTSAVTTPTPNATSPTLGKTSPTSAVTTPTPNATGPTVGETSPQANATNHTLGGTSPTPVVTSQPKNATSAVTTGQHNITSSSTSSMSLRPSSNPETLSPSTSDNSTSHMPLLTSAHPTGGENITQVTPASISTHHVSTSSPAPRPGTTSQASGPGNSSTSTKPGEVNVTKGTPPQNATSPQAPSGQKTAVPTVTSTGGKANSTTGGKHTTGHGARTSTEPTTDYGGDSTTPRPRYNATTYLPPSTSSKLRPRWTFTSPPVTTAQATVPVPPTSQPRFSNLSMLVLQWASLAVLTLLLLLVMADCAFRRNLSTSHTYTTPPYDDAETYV

Columns and labels:
[1] = biological target: recombinant EBV gp350 ectodomain protein (soluble, purified) (Epstein-Barr virus) (UniProt P03200); test: indirect ELISA, soluble gp350 0.5 µg/ml
[2] = biological target: recombinant EBV gp350 ectodomain protein (soluble, purified) (Epstein-Barr virus) (UniProt P03200); test: ELISA binding to purified EBV gp350/220
[3] = biological target: recombinant EBV gp350 ectodomain protein (soluble, purified) (Epstein-Barr virus) (UniProt P03200); test: indirect ELISA, 10 µg/ml purified antibody

Binder	binding [1]	binding [2]	binding [3]
HB14 (antibody, V domains shown) VH: SGAELVRPGASVNLSCKALGYTFTDYEMHWVKQTPVYGLEWIGTIHPRRGGTAYNQRFKGKAALTADKSSSTAYMELSSLTSEDSAVYYCARYGYPWYFDVWGAGTTVTVSS VL: LSLPVSLGDQASISCRSSQSIVHDNGNTYLEWYLQKPGQSPKLLIYKVSNRFSGVLDKFSGSGSGTDFTLKISRVEAEDLGIYYCFQGSHVPPTFGGGTKLEIK	binds	binds	binds
HB17 (antibody, V domains shown) VH: AELVIPGASVKVSCKASGYTFTSYWIHWVKQWPGQGLEWIGEINPNNGHTNYNEKFKSKATLTVDKSSSTAYMQLSSLTSEDSAVYYCARNLFYYSRPDYWGQGTSVTVSS VL: SSLSASLGDRVTISCRASQDIGNYLNWYQQKPDGTIKLLIYYTSRLHSGVPSRFSGSGSGTDYSLTISNLEEEDIATYFCQQGNTLPPTFGGGTKLEIKR	binds	binds	binds
HB22 (antibody, V domains shown) VH: PGLVAPSQSLSITCTVSGFSLTNYGIHWVRQPPGKGLEWLVVIWSDGSTIYNSALKSRLSISKDNSKSQVFLKMNSLQTDDTAMYYCARNYYGNSYPAWFAYWGQGTLVTVSA VL: LSLPVSLGDQASISCRSSQSIVHSNGNTYLEWYLQKPGQSPKLLIYKVSNRFSGVPDRFSGSGSGTDFTLRISRVEAEDLGVYYCFQGSHVPWTFGGGTKLEIKR	binds	binds	binds
HB18 (antibody, V domains shown) VH: PELKKPGETVKISCKASGYSFTNYGMNWVKQAPGKGLKWMGWINTYTGEPTYADDFKGRFAFSLETSASTAFLQINNLKNEDTATYLCARYYYGSVYSAWFAYWGQGTLVTVSA VL: LSLPVSLGDQASISCRSSQSIVHSNGNTYLEWYLQKAGQSPKLLIYKVSNRFSGVPDRFGGSGSGTDFTLKISRVEAEDLGVYYCFQGSHVPYTFGGGTKLEIKR	binds		binds
HB5 (antibody, V domains shown, also called mHB5) VH: AELVRPGASVKISCKAFGYTFTNHNINWVKQRPGQGLDWIGYINPYNDYTSYNQKFKGKATLTVDKSSNTAYMELSSLTSEDSAVYYCARSEGWLRRGAWFAYWGQGTLVTVSA VL: AILSVSPGERVSFSCRASQSIGTSIHWYQQRTNDSPRLLIKYASESISGIPPRFSGSGSGTDFTLSINSVESEDIADYHCQQSNSWPMLTFGAGTKLELKR	binds	binds	binds
